From PMC4707158
Results are given in words; binding and its absence hold for the method and conditions named. Binding seen in cells or lysates may run through a third protein. Some results given as binding are weak or reduced against the parent protein; the word gives no strength. Each block holds one substance with its values, some of them ahead of it.

Protein sequences, listed by entry. Tags and fused reporters are not part of them.
UniProt P08047: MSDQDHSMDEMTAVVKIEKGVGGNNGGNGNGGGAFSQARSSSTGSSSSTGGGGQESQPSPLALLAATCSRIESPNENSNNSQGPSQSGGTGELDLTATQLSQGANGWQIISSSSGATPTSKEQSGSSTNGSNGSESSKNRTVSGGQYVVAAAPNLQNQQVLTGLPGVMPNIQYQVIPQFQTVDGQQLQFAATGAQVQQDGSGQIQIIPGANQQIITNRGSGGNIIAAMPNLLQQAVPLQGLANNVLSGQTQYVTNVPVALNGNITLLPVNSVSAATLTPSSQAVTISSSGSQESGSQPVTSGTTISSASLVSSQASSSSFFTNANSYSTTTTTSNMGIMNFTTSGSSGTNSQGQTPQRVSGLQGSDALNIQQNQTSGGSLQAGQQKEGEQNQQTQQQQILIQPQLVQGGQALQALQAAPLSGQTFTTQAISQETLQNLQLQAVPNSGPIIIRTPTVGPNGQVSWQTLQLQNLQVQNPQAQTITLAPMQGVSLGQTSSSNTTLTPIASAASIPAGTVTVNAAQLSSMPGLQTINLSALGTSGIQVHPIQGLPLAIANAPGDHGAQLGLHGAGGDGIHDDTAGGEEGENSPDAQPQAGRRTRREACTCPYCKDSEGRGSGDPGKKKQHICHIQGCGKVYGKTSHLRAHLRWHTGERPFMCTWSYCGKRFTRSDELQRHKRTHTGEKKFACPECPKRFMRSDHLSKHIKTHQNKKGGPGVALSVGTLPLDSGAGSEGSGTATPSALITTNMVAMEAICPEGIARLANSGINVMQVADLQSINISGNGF
UniProt Q9H4L4: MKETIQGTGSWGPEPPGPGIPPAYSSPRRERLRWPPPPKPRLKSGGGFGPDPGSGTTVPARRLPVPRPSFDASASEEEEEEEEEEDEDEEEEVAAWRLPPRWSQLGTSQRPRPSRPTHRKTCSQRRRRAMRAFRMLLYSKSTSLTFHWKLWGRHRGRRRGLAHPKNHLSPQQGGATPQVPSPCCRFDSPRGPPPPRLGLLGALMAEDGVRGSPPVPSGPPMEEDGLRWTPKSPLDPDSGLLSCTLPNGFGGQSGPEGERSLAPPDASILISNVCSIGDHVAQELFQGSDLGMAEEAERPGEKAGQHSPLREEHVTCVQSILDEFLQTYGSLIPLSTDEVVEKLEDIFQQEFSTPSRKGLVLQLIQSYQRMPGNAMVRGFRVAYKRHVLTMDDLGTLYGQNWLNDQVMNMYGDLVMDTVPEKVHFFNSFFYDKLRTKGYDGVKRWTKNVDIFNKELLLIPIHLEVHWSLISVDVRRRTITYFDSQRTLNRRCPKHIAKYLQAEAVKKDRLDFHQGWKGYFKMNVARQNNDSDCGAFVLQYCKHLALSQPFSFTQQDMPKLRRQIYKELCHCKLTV
UniProt P13010: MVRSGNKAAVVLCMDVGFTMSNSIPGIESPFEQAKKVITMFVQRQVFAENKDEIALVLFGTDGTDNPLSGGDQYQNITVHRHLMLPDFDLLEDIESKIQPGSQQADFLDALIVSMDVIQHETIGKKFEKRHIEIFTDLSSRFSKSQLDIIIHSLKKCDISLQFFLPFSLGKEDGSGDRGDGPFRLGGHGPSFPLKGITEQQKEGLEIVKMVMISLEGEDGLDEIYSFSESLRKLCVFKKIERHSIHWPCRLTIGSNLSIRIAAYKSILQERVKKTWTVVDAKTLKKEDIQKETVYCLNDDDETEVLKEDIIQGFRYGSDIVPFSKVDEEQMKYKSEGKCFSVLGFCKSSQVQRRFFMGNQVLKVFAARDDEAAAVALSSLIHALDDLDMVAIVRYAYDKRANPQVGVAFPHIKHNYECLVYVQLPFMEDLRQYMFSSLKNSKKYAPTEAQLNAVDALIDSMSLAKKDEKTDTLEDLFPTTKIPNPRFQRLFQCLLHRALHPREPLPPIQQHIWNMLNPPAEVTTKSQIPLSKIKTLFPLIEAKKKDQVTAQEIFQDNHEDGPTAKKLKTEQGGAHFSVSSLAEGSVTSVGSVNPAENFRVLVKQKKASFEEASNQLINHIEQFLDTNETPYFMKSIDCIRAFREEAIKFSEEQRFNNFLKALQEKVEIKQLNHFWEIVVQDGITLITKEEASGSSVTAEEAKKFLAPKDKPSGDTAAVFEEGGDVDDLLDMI

What was measured:
[1] = molecular target: Specificity protein 1 (Sp1), endogenous (human (endogenous in HEK293T)) (UniProt P08047); test: co-IP; 293T cells transfected with RH-SENP3 or vector for 48 h; IP with anti-RH and with anti-Sp1 antibodies respectively, IB as indicated
RH-SENP3 = RH-SENP3 (UniProt Q9H4L4); test: as above
FLAG-SENP3 = FLAG-SENP3 (UniProt Q9H4L4); test: co-IP; 293T cells transfected with FLAG-pcDNA or FLAG-SENP3 for 48 h; lysate, co-IP with M2 beads; IB with antibodies against the endogenous proteins
[2] = molecular target: Specificity protein 1 (Sp1), endogenous (human (endogenous in HEK293T)) (UniProt P08047); test: co-IP; 293T cells with or without H2O2 exposure; IP with anti-Sp1 antibody or IgG; IB with anti-SENP3 antibody; both proteins endogenous

binding [1]: binds
Substance: RH-SENP3 (from UniProt Q9H4L4 1-574) (enzyme)

binding (RH-SENP3): binds
Substance: Specificity protein 1 (Sp1), endogenous (from UniProt P08047 1-785)

binding (FLAG-SENP3): binds
Substance: XRCC5 (Ku80) (from UniProt P13010 1-732)

binding [2]: binds
Substance: endogenous SENP3 (from UniProt Q9H4L4 1-574) (enzyme)
